For 24 molecules, T/C and survivor count results are on record in PubChem BioAssay AID330 (DTP/NCI, 2004).

The subject of the test is P388 leukemia ip, CD2F1 mice, survival T/C. As to the kind of experiment: NCI In Vivo Anticancer Drug Screen. Data for tumor model P388 Leukemia (intraperitoneal) in CD2F1 (CDF1) mice. Conditions: T/C endpoint: median survival time, higher T/C = longer survival.
Where [1] appears, read: dose: 6.25 mg/kg/injection, schedule: Q01DX009 (ip), vehicle: saline.
[2] abbreviates: dose: 12.5 mg/kg/injection, schedule: Q01DX009 (ip), vehicle: saline.
The mark [3] stands for this setting: dose: 50.0 mg/kg/injection, schedule: Q01DX009 (ip), vehicle: saline.
Where [4] appears, read: dose: 50.0 mg/kg/injection, schedule: Q01DX009 (ip), vehicle: saline with Tween-80.
Where [5] appears, read: dose: 200.0 mg/kg/injection, schedule: Q01DX009 (ip), vehicle: saline with Tween-80.
Setting [6] is: dose: 50.0 mg/kg/injection, schedule: Q04DX003 (ip), vehicle: saline with Tween-80.
[7] abbreviates: dose: 120.0 mg/kg/injection, schedule: Q01DX005 (ip), vehicle: saline with Tween-80.
The mark [8] stands for this setting: dose: 240.0 mg/kg/injection, schedule: Q01DX005 (ip), vehicle: saline with Tween-80.
Where [9] appears, read: dose: 100.0 mg/kg/injection, schedule: Q04DX003 (ip), vehicle: saline with Tween-80.
Where [10] appears, read: dose: 200.0 mg/kg/injection, schedule: Q01DX009 (ip), vehicle: other.

The list shows only some results of the screen, not a fair sample: it gathers tests that were run many times, whatever their T/C, doses with no T/C, and many T/C values between a quarter and a half above the control. Other doses and runs of a compound stand elsewhere. T/C is the treated group as % of the vehicle group. Some entries give survivors of the animals treated and no T/C: the source holds a T/C of zero for them, seemingly a mark for toxic or unscored doses. Some doses without a T/C left all or most animals alive at the check, yet need not have been tolerated: survival well below the control is almost never listed, so the zero probably covers shortened survival too. Survivors were counted at the toxicity check, usually on the fifth day, unless a day is given; later deaths do not show. Schedules are NCI's codes, read here as Q, the interval in days (D) or hours (H), X, the number of doses. Some entries hold several experiments; the results are listed from low to high. Where survival is the endpoint, this PubChem deposit counts one and a half times the control or more as active, and values a quarter to a half above the control carry no call in these data; other NCI protocols may use other cut-offs. Some T/C values are followed by the survivors on the day toxicity was checked, most often the fifth; where none is given, no animal had died by that day.

As to `CCCS(=O)(=O)Nc1ccc(Nc2c3ccccc3nc3ccccc23)c(OC)c1`, the T/C was 126 % of control [5 of 6 alive] under setting [1]; 129 and 136 % of control under setting [2]; 129 % of control under setting [3].
`Cc1cc(N(CCOS(C)(=O)=O)CCOS(C)(=O)=O)ccc1C=Nc1ccc(-c2csc(-c3ccc(Br)cc3)n2)cc1`: under setting [4], the T/C is 144 % of control [5 of 6 alive]. Besides, the survivor count under setting [5] is 6 of 6.
On to `COC(C)C(O)(C(=O)OCC1=CC[N+]2([O-])CCC(O)C12)C(C)(C)O` (stereo not drawn), for which, for the setting “dose: 400.0 mg/kg/injection, schedule: Q01DX005 (ip), vehicle: other”, the T/C is 129 % of control.
For the molecule `CCCNC1=C(C)C(=O)C2=C(C1=O)[C@H](COC(N)=O)[C@]1(OC)[C@@H]3N[C@@H]3CN21`, the T/C (dose: 3.13 mg/kg/injection, schedule: Q01DX009 (ip), vehicle: saline sonified) is 143 % of control. Moreover, the survivor count is given as 6 of 6 (dose: 12.5 mg/kg/injection, schedule: Q01DX009 (ip), vehicle: saline sonified); 6 of 6 (dose: 25.0 mg/kg/injection, schedule: Q04DX003 (ip), vehicle: saline with Tween-80); 6 of 6 under setting [6].
For `C=C1C(=O)OC2CC3(C)C=CC(=O)C(=C)C3CC12` (stereo not drawn), the survivor count (dose: 50.0 mg/kg/injection, schedule: Q04DX003 (ip), vehicle: Klucel (hydroxypropylcellulose) (HPC)) was 4 of 6; the survivor count (dose: 100.0 mg/kg/injection, schedule: Q04DX003 (ip), vehicle: Klucel (hydroxypropylcellulose) (HPC)) was 0 of 6; the survivor count (dose: 200.0 mg/kg/injection, schedule: Q04DX003 (ip), vehicle: Klucel (hydroxypropylcellulose) (HPC)) is reported as 0 of 6; the survivor count (dose: 400.0 mg/kg/injection, schedule: Q04DX003 (ip), vehicle: Klucel (hydroxypropylcellulose) (HPC)) is 0 of 6.
As to `O=S(=O)(F)c1ccc(C[P+](c2ccccc2)(c2ccccc2)c2ccccc2)cc1Cl`, the survivor count under setting [7] was 1 of 6 and the survivor count under setting [8] is listed as 0 of 6.
As for `COc1cc2c3c(c1O)-c1c(cccc1OC)CC3N(C)CC2` (stereo not drawn), the survivor count reads like this: under setting [6], 1 of 6; under setting [9], 0 of 6; (dose: 200.0 mg/kg/injection, schedule: Q04DX003 (ip), vehicle: saline with Tween-80) 0 of 6; (dose: 400.0 mg/kg/injection, schedule: Q04DX003 (ip), vehicle: saline with Tween-80) 0 of 6.
Turning to `C=C(Cn1cc(F)c(=O)n(CC(=C)C(=O)OCC)c1=O)C(=O)OCC`, the survivor count (dose: 360.0 mg/kg/injection, schedule: Q04DX002 (ip), vehicle: distilled water + Tween-80) is 5 of 5.
As for `Cc1[nH]c(=O)nc(CCc2ccccc2)c1-c1ccccc1`, under setting [8], the survivor count was 5 of 6.
`NC(=O)C(CCO)NC(=O)OCc1ccccc1` (stereo not drawn): where the note is “dose: 64.0 mg/kg/injection, schedule: Q01DX009 (ip), vehicle: other”, the T/C was 133 % of control.
Regarding `CN(C)CCCN=c1c2ccccc2n(C)c2[nH]c(=O)n(C)c(=O)c12`, the T/C (dose: 30.0 mg/kg/injection, schedule: Q01DX005 (ip), vehicle: saline) was 132 % of control and the T/C (dose: 60.0 mg/kg/injection, schedule: Q01DX005 (ip), vehicle: saline) is 127 % of control. The survivor count is, setting by setting: (dose: 120.0 mg/kg/injection, schedule: Q01DX005 (ip), vehicle: saline) 5 of 6; (dose: 240.0 mg/kg/injection, schedule: Q01DX005 (ip), vehicle: saline) 3 of 6.
Take `O=S(=O)(O)c1c(O)c2ccccc2c2nc3ccccc3nc12`: the survivor count (dose: 200.0 mg/kg/injection, schedule: Q01DX007 (ip), vehicle: saline) was 5 of 6.
For the molecule `C#CC(C)OCC(C)OC(C)=O` (stereo not drawn), under “dose: 335.0 mg/kg/injection, schedule: Q01DX009 (ip), vehicle: saline with Tween-80”, the survivor count is listed as 3 of 6.
Turning to `CNC(=O)OCC[N+](C)(C)C`, the survivor count runs as follows: under setting [2], 2 of 6 and 5 of 6; (dose: 25.0 mg/kg/injection, schedule: Q01DX009 (ip), vehicle: saline) 0 of 6; under setting [3], 0 of 6.
In the case of `CC(=O)OCC12C(=O)CC(C)C3(CC(c4ccoc4)OC3=O)C1CCC(=O)C2(O)CCl` (stereo not drawn), the survivor count (dose: 100.0 mg/kg/injection, schedule: Q01DX005 (ip), vehicle: saline + Tween-80 + alcohol) is 6 of 6.
Take `C=C/C(C)=C/[C@H](C)C(=O)C[C@H](O)CC1CC(=O)NC(=O)C1`: the T/C is, setting by setting: (dose: 12.5 mg/kg/injection, schedule: Q01DX009 (ip), vehicle: saline with Tween-80) 128 % of control; (dose: 25.0 mg/kg/injection, schedule: Q01DX009 (ip), vehicle: saline with Tween-80) 148 % of control; (dose: 37.5 mg/kg/injection, schedule: Q01DX009 (ip), vehicle: saline) 133 % of control; under setting [6], 128 % of control; (dose: 75.0 mg/kg/injection, schedule: Q04DX003 (ip), vehicle: saline with Tween-80) 141 % of control; under setting [9], 132 % of control. In addition, where the note is “dose: 150.0 mg/kg/injection, schedule: Q04DX003 (ip), vehicle: saline with Tween-80”, the T/C was 141 % of control. Also, the survivor count was 3 of 6 under setting [4] and 2 of 6 (dose: 100.0 mg/kg/injection, schedule: Q01DX009 (ip), vehicle: saline with Tween-80).
`CCn1cnc2c(SC3CCCC3)ncnc21`: the survivor count (dose: 400.0 mg/kg/injection, schedule: Q01DX009 (ip), vehicle: saline sonified) was 5 of 6.
Consider `CCOC(=O)C1C2CCC(O2)C1C#N` (stereo not drawn), for which the survivor count is 3 of 6 (dose: 60.0 mg/kg/injection, schedule: Q01DX005 (ip), vehicle: saline with Tween-80); 0 of 6 under setting [7]; 0 of 6 under setting [8].
For `[O-]c1cc2c3c(c1)c1cc4c(cc1c[n+]3C=C2)OCO4`, the T/C by setting is: (dose: 3.13 mg/kg/injection, schedule: Q01DX009 (ip), vehicle: other) 127 and 139 % of control; (dose: 6.25 mg/kg/injection, schedule: Q01DX009 (ip), vehicle: other) 133 and 136 % of control; (dose: 12.5 mg/kg/injection, schedule: Q01DX009 (ip), vehicle: other) 130 and 148 % of control; (dose: 25.0 mg/kg/injection, schedule: Q01DX009 (ip), vehicle: other) 145 and 148 % of control; (dose: 50.0 mg/kg/injection, schedule: Q01DX009 (ip), vehicle: other) 141 % of control. The survivor count (dose: 100.0 mg/kg/injection, schedule: Q01DX009 (ip), vehicle: other) is 0 of 6, 3 of 6, 5 of 6; the survivor count under setting [10] is on record as 0 of 6; the survivor count (dose: 400.0 mg/kg/injection, schedule: Q01DX009 (ip), vehicle: other) is 0 of 6.
Turning to `N=Cc1c(O)n(C2CCCCC2)c(=O)[nH]c1=O`, under setting [5], the survivor count is reported as 6 of 6.
Turning to `CCCCCCCCCCCC[N+]1([O-])CCOCC1`, the survivor count is, setting by setting: under setting [1], 6 of 6; (dose: 100.0 mg/kg/injection, schedule: Q01DX009 (ip), vehicle: saline) 0 of 6; (dose: 200.0 mg/kg/injection, schedule: Q01DX009 (ip), vehicle: saline) 0 of 6.
Regarding `CSc1nc2ccc(NC(=O)/C=N/O)cc2s1`, the survivor count runs as follows: (dose: 50.0 mg/kg/injection, schedule: Q01DX009 (ip), vehicle: Klucel (hydroxypropylcellulose) (HPC)) 6 of 6; (dose: 100.0 mg/kg/injection, schedule: Q01DX009 (ip), vehicle: Klucel (hydroxypropylcellulose) (HPC)) 3 of 6.
Consider `FC(F)(Cl)c1nc2nc(Cl)c(Cl)nc2[nH]1`, for which the survivor count under setting [10] is recorded as 5 of 6. Where the note is “dose: 400.0 mg/kg/injection, schedule: Q04DX003 (ip), vehicle: other”, the T/C was 125 % of control.
Consider `CCN(CC)Cc1ccc(N)cc1O`, for which the survivor count (dose: 400.0 mg/kg/injection, schedule: Q01DX009 (ip), vehicle: saline) was 0 of 6 and 1 of 6.
